These are yes or no findings as the source states them, for the method shown. In cells and extracts the contact can be indirect. Some binding calls cover weakened binding; strength is not graded here.
Biological target: Cyclin D1 (CCND1) (human (endogenous in IMR90)) (UniProt P24385)
Assay: co-IP; immunoprecipitation from senescent IMR90 lysate (EBC100: 50 mM Tris-HCl pH 8.0, 100 mM NaCl, 0.5% NP-40) with antibody on Dynabeads Protein G, overnight at 4 °C, five washes with NETN buffer, Western blot

Sequences of proteins named here, by UniProt entry; tags and fusion partners are left off.
UniProt P24385: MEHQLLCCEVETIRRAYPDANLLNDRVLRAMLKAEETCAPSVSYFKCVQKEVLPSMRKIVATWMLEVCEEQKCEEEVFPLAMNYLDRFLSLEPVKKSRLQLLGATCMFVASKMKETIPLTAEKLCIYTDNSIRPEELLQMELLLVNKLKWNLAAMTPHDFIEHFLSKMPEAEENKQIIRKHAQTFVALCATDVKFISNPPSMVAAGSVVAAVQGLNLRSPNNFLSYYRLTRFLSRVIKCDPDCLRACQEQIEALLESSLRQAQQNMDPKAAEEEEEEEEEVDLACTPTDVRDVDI
UniProt P38936: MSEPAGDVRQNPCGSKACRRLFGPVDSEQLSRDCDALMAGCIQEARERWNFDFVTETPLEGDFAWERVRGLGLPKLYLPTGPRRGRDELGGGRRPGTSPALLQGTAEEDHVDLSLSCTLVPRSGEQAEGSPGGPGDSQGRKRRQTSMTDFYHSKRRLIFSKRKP

## CDKN1A (from UniProt P38936 1-164)
  binding: binds
